Experimental data as given in patent US20250070172A1, “ANTHRAQUINONE-BASED ACTIVE MATERIAL” (MITSUBISHI HEAVY INDUSTRIES, LTD., priority 2021, published 2025).

Key:
[1] = redox flow battery with potassium ferrocyanide as positive electrode active material, cited from earlier work
[2] = Charge-discharge cycle test in a redox flow battery, compound as negative electrode active material; conditions: 100 mA/cm^2, 30° C.

Structure (SMILES) | Rate of capacity decrease during discharge ([1]; from Figure S7 of the cited document) | Cell voltage ([1]; from Table S2 of the cited document) | Rate of capacity decrease during discharge ([2]; calculated from capacity in second cycle and 3834th cycle, cutoff 1.4 V / 0.6 V) | Cell voltage ([2]; redox flow battery, ferrocyanide/ferricyanide positive electrolyte, negative electrolyte in 1 mol/L KOH, voltage during discharge)
O=C1c2ccc(O)cc2C(=O)c2ccc(O)cc21 [Comparative Example 1, 2,6-dihydroxyanthraquinone] | ~5 %/day | 1.20 V |  | 
O=C(O)CCCOc1ccc2c(c1)C(=O)c1ccc(O)cc1C2=O [Example 1, 2-(3′-carboxypropyloxy)-6-hydroxy-9,10-anthraquinone] |  |  | 0.5 %/day | 1.1 V

Like-named read-outs stand apart in the source and are kept apart here.
